Assay results reported in patent US20040259770A1, “Method for determining leukocyte activation” (Rush University Medical Center, priority 2003, published 2004).

System: lactoferrin receptors on eosinophils
Assay: Binding of 125I-labeled lactoferrin by eosinophils, Scatchard analysis
Design: species or system human
Conditions: three experiments
Protocol: Lactoferrin (100 micrograms) was radioiodinated using IODO-GEN iodination reagent (Pierce; Rockford, Ill.) according to the procedure supplied by the manufacturer. The lactoferrin was incubated with 400 micro Curies Na^125I (PerkinElmer Life Sciences; Boston, Mass.) for 3 min, and the ^125I-labeled lactoferrin was separated from free Na^125I by chromatography through a 5-ml D-Salt dextran desalting column (Pierce) using PBS as the elution buffer. Protein concentration of the ^125I-labeled lactoferrin was measured by the BCA assay (Pierce). Specific activity of the ^125I-labeled lactoferrin was 34,800 cpm/pmole. […] Binding of ^125I-labeled lactoferrin by eosinophils was determined using a modification of previously described protocols for eosinophils. Motegi et al. J. Immunol. […] In some experiments as indicated, binding was measured in the presence of excess unlabeled transferrin. […] The supernatant was removed by careful aspiration, and after quick-freezing on dry ice the tip of the tube containing the cell pellet was excised and the radioactivity was measured by gamma counting (Beckman Coulter Gamma 5500B). Specific binding was determined as the difference between total binding and binding in the presence of the excess unlabeled lactoferrin. Binding constants were determined by Scatchard analysis (Scatchard, G., Ann. N.Y. Acad. Sci. 51:660 (1949)).

B1: ^125I-labeled lactoferrin: lactoferrin radioiodinated with IODO-GEN reagent, 34,800 cpm/pmole (protein, UniProt P02788 20-710, looked up)
Lactotransferrin: GRRRSVQWCAVSQPEATKCFQWQRNMRKVRGPPVSCIKRDSPIQCIQAIAENRADAVTLDGGFIYEAGLAPYKLRPVAAEVYGTERQPRTHYYAVAVVKKGGSFQLNELQGLKSCHTGLRRTAGWNVPIGTLRPFLNWTGPPEPIEAAVARFFSASCVPGADKGQFPNLCRLCAGTGENKCAFSSQEPYFSYSGAFKCLRDGAGDVAFIRESTVFEDLSDEAERDEYELLCPDNTRKPVDKFKDCHLARVPSHAVVARSVNGKEDAIWNLLRQAQEKFGKDKSPKFQLFGSPSGQKDLLFKDSAIGFSRVPPRIDSGLYLGSGYFTAIQNLRKSEEEVAARRARVVWCAVGEQELRKCNQWSGLSEGSVTCSSASTTEDCIALVLKGEADAMSLDGGYVYTAGKCGLVPVLAENYKSQQSSDPDPNCVDRPVEGYLAVAVVRRSDTSLTWNSVKGKKSCHTAVDRTAGWNIPMGLLFNQTGSCKFDEYFSQSCAPGSDPRSNLCALCIGDEQGENKCVPNSNERYYGYTGAFRCLAENAGDVAFVKDVTVLQNTDGNNNEAWAKDLKLADFALLCLDGKRKPVTEARSCHLAMAPNHAVVSRMDKVERLKQVLLHQQAKFGRNGSDCPDKFCLFQSETKNLLFNDNTECLARLHGKTTYEKYLGPQYVAGITNLKKCSTSPLLEACEFLRK
modifications: 125I label
notes: lactoferrin radioiodinated with IODO-GEN reagent, 34,800 cpm/pmole
In the case of B1, the “receptor population, first class of receptors” value is reported as “approximately 78,000+/−13,000 per eosinophil” and the “receptor population, second class of receptors” value is reported as ≤ 620,000 molecules per eosinophil.
